Data reported in patent US20050191668A1, “Methods of using peroxisome proliferator-activated receptor alpha target genes” (priority 2004, published 2005).
For at least one compound, name, drawing or mass did not settle the structure.

Legend:
Pa9 gene = Pa9 gene expression by real-time RT-PCR in HuH7 hepatocytes; assay type: cell-based; conditions: human HuH7 hepatocytes, at its effective concentration (Table 4)
From the text: Human hepatocyte HuH7 cells, which are epithelial cells of liver, were obtained from Japan Health Science Research Resources Bank (Osaka, Japan). Human primary adipocytes, which are connective tissue cells specialized for the synthesis and storage of fat, were obtained from Zen-Bio, Inc (Research Triangle Park, NC). Human primary skeletal muscle cells (SKMC) were obtained from Cambrex Bio Science (Walkersville, Md.). PPARα agonists, Wy14643 (Agatha, et al, 2000, Archives of Biochemistry and Biophysics 380:353-359) and fenofibrates were obtained from Cayman Chemical (Ann Arbor, Mich.) and Sigma (St Louis, Mo.), respectively.
Human HuH7 cells were cultured in Dulbecco's Modified Eagle Medium with 10% Fetal Bovine Serum (Gibco, N.Y.). […]
Reverse transcription (RT) and PCR were conducted in one step using “One-Step RT-PCR Master Mix Reagent” kit (Applied Biosystems, Foster City, Calif.) in ABI PRISM 7700 Sequence Detection System (Applied Biosystems). […] PCR data were collected by Ct value (the cycle number at which logarithmic PCR plots cross a calculated threshold line) according to the manufacturer's guidelines and the value was used to determine the Δ^Ct (Ct of the target gene minus the Ct of 18S ribosomal RNA controls). Relative mRNA level was calculated using the equation 2^−ΔΔCt as described previously (Heid et al., 1996, Genome Res. 6:986-994).

murine FDRG [1] = conditions: NIH3T3 fibroblasts stably expressing PPARγ, 10 μg/ml, 2 hours; cited from earlier work
murine FDRG [2] = conditions: white adipose tissue (WAT), Zucker Diabetic Fatty Rats, chronic treatment; cited from earlier work

SMILES: CN(CCOc1ccc(CC2SC(=O)NC2=O)cc1)c1ccccn1 (stereo not drawn) [Rosiglitazone]
- gene expression of Pa9, Pa13 and Pa21 (statement in words) (Pa9 gene): did not significantly increase

SMILES: CCc1ccc(CCOc2ccc(CC3SC(=O)NC3=O)cc2)nc1 (stereo not drawn) [pioglitazone]
- increase of murine FDRG expression level (murine FDRG [1]): 10 fold

SMILES: Cc1c(C)c2c(c(C)c1O)CCC(C)(COc1ccc(CC3SC(=O)NC3=O)cc1)O2 (stereo not drawn) [troglitazone]
- upregulation of murine FDRG expression (murine FDRG [2]): 3-5 fold
